Test results: PMC9813358, “Insights into the GSDMB-mediated cellular lysis and its targeting by IpaH7.8” (Nature Communications, 2023)
Results are given in words; binding and its absence hold for the method and conditions named. Binding can be weak; no strength is given.

Sequences of proteins named here, by UniProt entry; tags and fusion partners are left off. A change or cut given only in a name is not applied to a line headed by its entry. Residues count along the entry.
UniProt Q8TAX9: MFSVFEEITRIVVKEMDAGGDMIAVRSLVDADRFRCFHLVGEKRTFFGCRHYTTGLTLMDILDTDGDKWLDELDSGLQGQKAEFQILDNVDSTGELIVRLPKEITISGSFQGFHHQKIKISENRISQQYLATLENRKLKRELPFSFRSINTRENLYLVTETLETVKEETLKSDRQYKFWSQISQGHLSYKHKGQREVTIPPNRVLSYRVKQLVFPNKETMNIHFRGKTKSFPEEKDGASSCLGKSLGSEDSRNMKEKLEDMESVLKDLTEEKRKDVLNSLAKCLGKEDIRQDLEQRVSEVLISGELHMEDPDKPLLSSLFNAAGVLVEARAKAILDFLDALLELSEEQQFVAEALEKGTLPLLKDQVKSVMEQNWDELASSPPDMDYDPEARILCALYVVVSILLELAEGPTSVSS
UniProt P18014, residues 23-565: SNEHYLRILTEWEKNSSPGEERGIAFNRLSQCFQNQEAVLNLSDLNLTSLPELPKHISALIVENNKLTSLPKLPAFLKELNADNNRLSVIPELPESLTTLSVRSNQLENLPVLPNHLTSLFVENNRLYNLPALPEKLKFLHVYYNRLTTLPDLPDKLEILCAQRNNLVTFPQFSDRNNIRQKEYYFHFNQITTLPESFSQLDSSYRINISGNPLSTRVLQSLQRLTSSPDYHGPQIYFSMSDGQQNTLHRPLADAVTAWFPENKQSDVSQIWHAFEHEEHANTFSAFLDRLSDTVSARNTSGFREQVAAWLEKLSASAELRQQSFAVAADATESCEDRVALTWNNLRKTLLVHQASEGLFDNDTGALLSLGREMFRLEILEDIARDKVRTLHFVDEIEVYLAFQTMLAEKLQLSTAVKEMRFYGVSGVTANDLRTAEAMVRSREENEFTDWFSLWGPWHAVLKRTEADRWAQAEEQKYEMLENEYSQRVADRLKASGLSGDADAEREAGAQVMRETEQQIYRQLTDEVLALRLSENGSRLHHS

Key:
Experiment in all cases: pull-down; MBP-tagged GSDMB proteins (~100 µg) on amylose resin, tag-free IpaH7.8 (~400 µg) added; 25 mM Tris-HCl pH 8.0, 200 mM NaCl, 3 mM β-mercaptoethanol, 4 °C; eluted with maltose, SDS-PAGE; both purified
[1] = target: MBP-GSDMB R99A (human) (UniProt Q8TAX9)
[2] = target: MBP-GSDMB K117A (human) (UniProt Q8TAX9)
[3] = target: MBP-GSDMB K14A (human) (UniProt Q8TAX9)
[4] = target: MBP-GSDMB K119A (human) (UniProt Q8TAX9)
[5] = target: MBP-GSDMB A18D (human) (UniProt Q8TAX9)
[6] = target: MBP-GSDMB E95A (human) (UniProt Q8TAX9)

Measured: binding

IpaH7.8 protein (residues 23–565) (from UniProt P18014 23-565) (enzyme)
binds: all assays above
